Screening data, single-dose tests

The values are deposited in ChEMBL (CHEMBL3988442, “University of Dundee, Small-Polar-MMV Screening Library” (2021)).

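Whole-cell growth test on Mycobacterium tuberculosis, read after 4 days in a medium based on cholesterol and the lipid DPPC; the read-out is not stated. Concentration: 50 µM. Direction is inferred from retests: higher values go with more growth inhibition. Size under these conditions: about 69,000 compounds, about 370 of them at 50% or above in at least one test.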

Each number is a percent effect as filed.
The record does not define 0% and 100%; most values in the screen are far below 50% and negative numbers occur (in some assays of this library far below -100).
The compounds are a random part of those screened.
Two or more numbers in one place are separate tests of the same structure; such repeats can differ widely.

* [H][C@]12CC[C@]([H])(CN(Cc3[nH]cnc3C)C1)N(Cc1ccc(C)o1)C2 | -4.994%
* CC1(CCNC(=O)NCc2ccsc2)OCCO1 | 12.21%
* Cc1nn(C)c2c(=O)n(CC(=O)NCc3ccccn3)ccc12 | 10.8%
* O=C(CN1CCCC(Cn2cncn2)C1)NCCOc1ccccc1 (stereo unspecified) | 2.253%
* O=C(NC1CCc2ccccc2C1)N1CCN(C(=O)C2CCC2)CC1 (stereo unspecified) | -7.651%
* COc1cccc(C(CO)NC(=O)Cc2ccc(F)c(Br)c2)c1 (stereo unspecified) | 8.311% & 56.06%
* CN1CCc2nc(C3CCCCN3Cc3ccccc3Cl)ncc2C1 (stereo unspecified) | -2.478%
* NC(=O)CN1CC2(CCC1=O)CCN(Cc1cc(F)ccc1Cl)CC2 | 10.27%
* Cc1cccc(C)c1CN1C(=O)CC2(CCSC2)C1=O (stereo unspecified) | 2.944%
* CN1CCc2nc3c(c(N)c2C1)CCCN3C | 0.4717%
* O=C(O)C(F)(F)F.[H][C@@]12CCCO[C@]1([H])[C@H](NC(=O)c1cnn(C)c1)CN2CC1CCOCC1 | -4.657%
* CN1CCCC(c2cccc(-c3ccccc3F)n2)C1 (stereo unspecified) | 32.33% & 32.58%
* O=C(CCCn1cncn1)N1CCC2(CCCN(CC3CC3)C2=O)C1 (stereo unspecified) | -32.52%
* Cc1ccc(N2CCCC(NCC(=O)NCC3CC3)C2)nn1 (stereo unspecified) | 17.44%
* Cc1sc2c(C3CCCN(S(C)(=O)=O)C3)nc(C)n2c1C (stereo unspecified) | -3.851%
* Cc1nc(CN2CCC3(CCCN(Cc4cccnc4)C3)C2=O)cs1.O=C(O)C(F)(F)F.O=C(O)C(F)(F)F.O=C(O)C(F)(F)F (stereo unspecified) | -13.79%
* Cc1nc(CCN)cc(N2CCC(O)(c3ccccc3)C2)n1 (stereo unspecified) | -11.02%
* Cc1nn(C)c2c(=O)n(CC(=O)NCCC(C)C)ccc12 | -0.5027%
* O=C(NCCCF)N1CCC(n2ccc(C(F)(F)F)n2)CC1 | 21.78%
* CCCNC(=O)c1nn(CC)cc1NC(=O)c1cn(C)nc1C | 17.97%
* COc1ccc(C)cc1CC(=O)N1CC[C@@]2(CCCO2)[C@@H](O)C1 | 2.972%
* CC(NC1(CNC(=O)Cn2cccn2)CCOCC1)c1ccccc1 (stereo unspecified) | 4.323%
* CC(C)n1c(=O)c2ccccc2n(CCCN(C)C)c1=O.Cl | -13.88%
* CCc1noc(C2CCCCN2C(=O)c2nnc3ccccc3n2)n1 (stereo unspecified) | 4.987%
* CCc1ccc(CCC(=O)N2CCOCC2c2ncon2)cc1 (stereo unspecified) | -3.204%
* COc1ccc2nnc(CCCC(=O)NCc3ccccc3OC)n2n1 | -4.731%
* O=C(O)C(F)(F)F.O=C(O)C(F)(F)F.[H][C@@]12CCN(C(=O)C3CC3)C[C@]1([H])[C@@H](CN(C)Cc1cccnc1)OC2 | -9.216%
* N#Cc1cccc(C(=O)N2C[C@H](CO)C[C@H](CN3CCCC3)C2)c1 | -12.11%
* Cc1cc(N2CCN(C(=O)c3cc(Cl)c[nH]3)CC2)nc(N)n1 | 16.4%
* O=C(CCc1ccccn1)N1CCN(C(=O)CC2CCCCC2)CC1 | 3.9%
* O=C(c1ccccc1-c1ccccc1)N1CCOC2(CNCCOC2)C1 (stereo unspecified) | 0.1252%
* Cc1cnc(N2CC3(CCN(S(=O)(=O)C4CC4)C3)C2)nc1.O=C(O)C(F)(F)F | -25.63%
* O=C(C1CCCCO1)N1CCc2ncnc(NCCO)c2CC1 (stereo unspecified) | 13.33%
* Cc1noc(C)c1CN1CCOCC12CCN(c1nccs1)CC2.O=C(O)C(F)(F)F | -4.068%
* CN1CCN(C(=O)c2cnsn2)c2cc(F)ccc21 | 8.344%
* CN(Cc1ccc(CCC(C)(C)O)cc1)Cc1cccc(O)c1 | 8.084%
* O=C(O)C(F)(F)F.O=S(=O)(C1CC1)N1CCC2(CC1)CN(Cc1nccs1)CCO2 | -1.827%
* [H][C@@]12CCN(C(=O)c3ccco3)C[C@]1([H])[C@@H](CNC(=O)C1CC1)OC2 | -9.615%
* CC(C)CC(C(=O)N(C)Cc1ncnn1C)N1CCCCC1=O (stereo unspecified) | 70.25%
* [H][C@@]12CCN(C(=O)c3cccs3)C[C@]1([H])OCCNC2=O | -36.51%
* COC(=O)CNC(=O)c1cn(Cc2ccccc2F)nn1 | 0.8892%
* Cc1nnc(CCNC2CCN(c3ncnc4c(C)csc34)CC2)s1 | -8.144%
* COCCN(C)C1COC2(CCN(Cc3ccccn3)CC2)C1.O=C(O)C(F)(F)F.O=C(O)C(F)(F)F (stereo unspecified) | -20.62%
* CC(NC(=O)NCC(F)(F)F)c1nncn1C (stereo unspecified) | -10.9%
* CCc1ncc2c(n1)CN(c1nccc(C3CCCC3)n1)C2 | 8.556%
* CC(C)c1ccc(-n2ncc(C(=O)NCC3COC(C)(C)O3)c2N)cc1 (stereo unspecified) | -7.45%
* Cc1nnsc1C(=O)N1CCC2(CC1)c1nc[nH]c1CCN2CC(C)C | 5.213%
* C=C(Cl)CN1CCC(C(=O)c2cc(F)ccc2F)CC1 | -3.277%

The first 5 entries again:

* [H][C@]12CC[C@]([H])(CN(Cc3[nH]cnc3C)C1)N(Cc1ccc(C)o1)C2 : -4.994%
* CC1(CCNC(=O)NCc2ccsc2)OCCO1 : 12.21%
* Cc1nn(C)c2c(=O)n(CC(=O)NCc3ccccn3)ccc12 : 10.8%
* O=C(CN1CCCC(Cn2cncn2)C1)NCCOc1ccccc1 (stereo unspecified) : 2.253%
* O=C(NC1CCc2ccccc2C1)N1CCN(C(=O)C2CCC2)CC1 (stereo unspecified) : -7.651%